Results on 1 sequence are retold here after paper PMC4447949, “Structures of the Ets Protein DNA-binding Domains of Transcription Factors Etv1, Etv4, Etv5, and Fev” (The Journal of Biological Chemistry, 2015).

The chains behind the UniProt entries cited, without tags or fusion partners. Residues count along the entry.
UniProt P43268, 338-470: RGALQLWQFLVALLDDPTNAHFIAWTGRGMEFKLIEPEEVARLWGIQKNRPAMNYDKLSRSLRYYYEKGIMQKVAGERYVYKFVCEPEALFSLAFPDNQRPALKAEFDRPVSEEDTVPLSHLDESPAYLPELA
UniProt P41161, 365-462: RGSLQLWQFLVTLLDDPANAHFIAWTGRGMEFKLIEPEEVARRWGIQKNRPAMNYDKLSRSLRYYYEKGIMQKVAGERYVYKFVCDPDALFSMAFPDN

Where a chain is given by its changes, count along the chain named. For at least one entry, the source does not settle the construct or the ends of the probe. For some of these results: The direction of at least one scale is not stated here. For some of these results: Protein sequences can lack the tags named with them.

Holding throughout (experiment): EMSA
The target of data set [1] is Etv4 Ets domain oxidized dimer (human) (UniProt P43268). As to conditions: oxidized, estimate, no saturation; EMSA: 50 mM Tris-HCl pH 7.5, 50 mM NaCl, 2 mM MgCl2, 0.01% Tween 20, 5% glycerol, 1 h at room temperature; proteins reduced with 10 mM TCEP unless stated; 10% native PAGE; recombinant protein; residues 338-470; protein details: N-terminal His6 removed by TEV (leaves SM).

Data set [2] concerns the target Etv5 Ets domain oxidized dimer (human) (UniProt P41161). As to conditions: oxidized, estimate, no saturation; EMSA: 50 mM Tris-HCl pH 7.5, 50 mM NaCl, 2 mM MgCl2, 0.01% Tween 20, 5% glycerol, 1 h at room temperature; proteins reduced with 10 mM TCEP unless stated; 10% native PAGE; recombinant protein; residues 365-462; protein details: N-terminal His6 removed by TEV (leaves SM).

Data set [3] deals with Etv1 WT dimer (purified oxidized) (human) (UniProt P50549). The following applies: EMSA: 50 mM Tris-HCl pH 7.5, 50 mM NaCl, 2 mM MgCl2, 0.01% Tween 20, 5% glycerol, 1 h at room temperature, proteins reduced with 10 mM TCEP unless stated, 10% native PAGE, recombinant protein, residues 326-429, protein details: N-terminal His6 removed by TEV (leaves SM). In general terms: In EMSA bound probe runs differently from free probe, usually more slowly.

Data set [4] has as its target T1, Etv1 Y396A (human) (UniProt P50549).
T1 sequence (looked up): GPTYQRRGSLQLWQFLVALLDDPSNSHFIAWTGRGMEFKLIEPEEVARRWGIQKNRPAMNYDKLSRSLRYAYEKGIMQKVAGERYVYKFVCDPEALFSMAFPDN
The following applies: EMSA: 50 mM Tris-HCl pH 7.5, 50 mM NaCl, 2 mM MgCl2, 0.01% Tween 20, 5% glycerol, 1 h at room temperature; proteins reduced with 10 mM TCEP unless stated; 10% native PAGE; recombinant protein; residues 326-429; protein details: N-terminal His6 removed by TEV (leaves SM).

In data set [5] the target is T2, Etv1 Y397A (human) (UniProt P50549).
T2 sequence (looked up): T1 sequence (looked up) with A71Y, Y72A
The following applies: Discussion: complete loss of binding; EMSA: 50 mM Tris-HCl pH 7.5, 50 mM NaCl, 2 mM MgCl2, 0.01% Tween 20, 5% glycerol, 1 h at room temperature; proteins reduced with 10 mM TCEP unless stated; 10% native PAGE; recombinant protein; residues 326-429; protein details: N-terminal His6 removed by TEV (leaves SM).

As usually defined, the Kd is the free concentration of one partner at which half of the binding sites on the other are occupied at equilibrium, for simple one-to-one binding. Consider “ATCTCACCGGAAGTGTAGCA (double strand) [Etv1ALF/Etv1ALR EMSA probe]”, for which the Kd in data set [1] was 148 1e-10 M; in data set [2], 790 1e-10 M; in data set [3] (0.1 nM probe, 1:9 GSH:GSSG), 272 1e-10 M; in data set [3] (0.1 nM probe, 9:1 GSH:GSSG) it was 171 1e-10 M; in data set [3] (0.1 nM probe, dimer reduced with 10 mM TCEP), 2.6 1e-10 M; in data set [3] (0.1 nM probe, oxidized, no TCEP), 802 1e-10 M. The Kd in data set [3] (2 nM probe, dimer reduced with 10 mM TCEP) was 11.2 1e-10 M; in data set [3] (2 nM probe, oxidized, no TCEP), 195 1e-10 M. Also, the binding signal (fold reduction in affinity) in data set [4] and in data set [5] was over 1000 throughout.
